Results on one molecule are retold here after publication PMC3266667 (Frontiers in Pharmacology, 2012).

The chains behind the UniProt entries cited, without tags or fusion partners. Where a name states a change or a piece, a line headed by the entry shows the natural chain unless it says otherwise.
UniProt Q12809: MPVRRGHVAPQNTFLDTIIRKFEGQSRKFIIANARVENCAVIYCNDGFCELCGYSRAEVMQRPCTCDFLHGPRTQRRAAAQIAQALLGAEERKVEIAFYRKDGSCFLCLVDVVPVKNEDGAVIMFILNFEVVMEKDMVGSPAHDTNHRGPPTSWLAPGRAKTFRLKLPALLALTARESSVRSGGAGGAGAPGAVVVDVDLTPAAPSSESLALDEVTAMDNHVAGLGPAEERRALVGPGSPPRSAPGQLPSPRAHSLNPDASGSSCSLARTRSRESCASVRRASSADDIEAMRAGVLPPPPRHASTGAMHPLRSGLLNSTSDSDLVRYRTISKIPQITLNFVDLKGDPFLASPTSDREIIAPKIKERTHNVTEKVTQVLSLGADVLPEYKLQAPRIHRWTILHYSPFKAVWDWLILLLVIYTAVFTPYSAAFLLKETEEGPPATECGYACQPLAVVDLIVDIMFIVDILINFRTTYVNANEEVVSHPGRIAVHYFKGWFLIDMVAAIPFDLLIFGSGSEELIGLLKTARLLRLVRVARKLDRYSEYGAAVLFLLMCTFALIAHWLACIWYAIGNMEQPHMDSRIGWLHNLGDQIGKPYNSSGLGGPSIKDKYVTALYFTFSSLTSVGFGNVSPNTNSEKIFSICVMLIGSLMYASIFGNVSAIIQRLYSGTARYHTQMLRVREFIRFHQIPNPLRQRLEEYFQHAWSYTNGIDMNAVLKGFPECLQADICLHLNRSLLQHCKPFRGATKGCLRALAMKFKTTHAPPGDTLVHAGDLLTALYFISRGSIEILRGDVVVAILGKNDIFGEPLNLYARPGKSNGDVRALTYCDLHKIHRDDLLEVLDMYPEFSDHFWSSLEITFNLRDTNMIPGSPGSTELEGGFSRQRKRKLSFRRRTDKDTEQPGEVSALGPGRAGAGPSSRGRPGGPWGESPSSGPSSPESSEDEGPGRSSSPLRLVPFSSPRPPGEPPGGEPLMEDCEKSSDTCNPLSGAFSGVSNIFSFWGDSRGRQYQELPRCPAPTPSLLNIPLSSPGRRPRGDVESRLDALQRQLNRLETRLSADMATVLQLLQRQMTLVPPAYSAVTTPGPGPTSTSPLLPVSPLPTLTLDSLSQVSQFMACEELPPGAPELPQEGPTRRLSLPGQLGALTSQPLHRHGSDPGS

For the series, the target named is hERG K+ channels (Homo sapiens, UniProt Q12809).

With `CN1CCC[C@@H]1CCO[C@](C)(c1ccccc1)c1ccc(Cl)cc1` [Clemastine], the “effect on the hERG current (in words)” value was “IC50 values in the low and mid-nanomolar range”.
